# Experimental data: the supplement of paper PMC7666118
# Amino acid sequences for entries named in this document (tags omitted). A change or cut given only in a name is not applied to a line headed by its entry.
# UniProt Q8NHP8: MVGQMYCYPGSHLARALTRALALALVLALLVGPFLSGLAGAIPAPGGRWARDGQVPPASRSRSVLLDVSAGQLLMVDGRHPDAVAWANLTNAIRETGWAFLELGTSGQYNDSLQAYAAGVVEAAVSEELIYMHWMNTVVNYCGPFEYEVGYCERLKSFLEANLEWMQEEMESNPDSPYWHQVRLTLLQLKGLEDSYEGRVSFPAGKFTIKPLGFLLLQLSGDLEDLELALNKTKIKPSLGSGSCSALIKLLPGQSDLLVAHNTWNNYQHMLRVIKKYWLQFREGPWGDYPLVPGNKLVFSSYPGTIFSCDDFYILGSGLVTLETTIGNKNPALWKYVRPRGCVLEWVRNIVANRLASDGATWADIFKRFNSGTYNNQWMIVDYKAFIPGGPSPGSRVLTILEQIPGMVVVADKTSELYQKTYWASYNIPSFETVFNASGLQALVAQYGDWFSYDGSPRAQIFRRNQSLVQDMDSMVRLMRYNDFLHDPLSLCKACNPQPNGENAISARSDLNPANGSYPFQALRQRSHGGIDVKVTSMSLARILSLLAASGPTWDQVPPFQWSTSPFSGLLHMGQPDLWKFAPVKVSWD
# UniProt P62937, whole entry, looked up: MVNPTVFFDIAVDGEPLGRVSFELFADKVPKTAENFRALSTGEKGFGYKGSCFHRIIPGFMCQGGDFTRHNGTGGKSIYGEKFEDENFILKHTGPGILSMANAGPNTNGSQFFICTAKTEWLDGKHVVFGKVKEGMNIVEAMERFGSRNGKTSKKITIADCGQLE
# UniProt Q06830: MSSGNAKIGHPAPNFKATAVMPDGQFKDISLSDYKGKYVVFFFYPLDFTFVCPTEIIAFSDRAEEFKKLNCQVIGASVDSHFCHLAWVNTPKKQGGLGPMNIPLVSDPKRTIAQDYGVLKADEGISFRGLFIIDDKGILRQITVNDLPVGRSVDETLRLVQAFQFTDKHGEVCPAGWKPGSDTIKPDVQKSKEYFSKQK
# UniProt O43447: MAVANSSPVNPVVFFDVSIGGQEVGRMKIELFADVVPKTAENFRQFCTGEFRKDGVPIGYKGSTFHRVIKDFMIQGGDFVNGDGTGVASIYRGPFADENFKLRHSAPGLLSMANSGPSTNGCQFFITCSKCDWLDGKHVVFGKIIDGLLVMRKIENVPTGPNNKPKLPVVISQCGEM
# UniProt P14859: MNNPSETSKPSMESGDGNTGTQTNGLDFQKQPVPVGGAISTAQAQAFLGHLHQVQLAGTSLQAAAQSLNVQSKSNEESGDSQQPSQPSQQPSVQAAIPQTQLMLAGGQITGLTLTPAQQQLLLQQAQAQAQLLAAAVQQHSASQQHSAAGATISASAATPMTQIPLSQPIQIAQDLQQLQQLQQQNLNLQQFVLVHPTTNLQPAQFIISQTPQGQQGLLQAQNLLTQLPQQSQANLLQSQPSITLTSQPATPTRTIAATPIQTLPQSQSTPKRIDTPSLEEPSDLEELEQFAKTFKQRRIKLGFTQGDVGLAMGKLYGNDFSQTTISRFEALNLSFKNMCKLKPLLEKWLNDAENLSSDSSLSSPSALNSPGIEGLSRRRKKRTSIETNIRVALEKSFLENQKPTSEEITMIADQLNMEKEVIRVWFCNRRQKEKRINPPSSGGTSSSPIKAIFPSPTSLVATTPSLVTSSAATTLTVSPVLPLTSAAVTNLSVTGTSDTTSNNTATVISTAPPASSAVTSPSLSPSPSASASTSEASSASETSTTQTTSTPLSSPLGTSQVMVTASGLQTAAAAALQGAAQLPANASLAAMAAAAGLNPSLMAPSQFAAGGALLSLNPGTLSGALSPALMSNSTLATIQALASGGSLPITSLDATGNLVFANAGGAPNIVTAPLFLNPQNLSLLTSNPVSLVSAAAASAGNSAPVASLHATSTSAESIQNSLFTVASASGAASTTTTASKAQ
# UniProt Q10713: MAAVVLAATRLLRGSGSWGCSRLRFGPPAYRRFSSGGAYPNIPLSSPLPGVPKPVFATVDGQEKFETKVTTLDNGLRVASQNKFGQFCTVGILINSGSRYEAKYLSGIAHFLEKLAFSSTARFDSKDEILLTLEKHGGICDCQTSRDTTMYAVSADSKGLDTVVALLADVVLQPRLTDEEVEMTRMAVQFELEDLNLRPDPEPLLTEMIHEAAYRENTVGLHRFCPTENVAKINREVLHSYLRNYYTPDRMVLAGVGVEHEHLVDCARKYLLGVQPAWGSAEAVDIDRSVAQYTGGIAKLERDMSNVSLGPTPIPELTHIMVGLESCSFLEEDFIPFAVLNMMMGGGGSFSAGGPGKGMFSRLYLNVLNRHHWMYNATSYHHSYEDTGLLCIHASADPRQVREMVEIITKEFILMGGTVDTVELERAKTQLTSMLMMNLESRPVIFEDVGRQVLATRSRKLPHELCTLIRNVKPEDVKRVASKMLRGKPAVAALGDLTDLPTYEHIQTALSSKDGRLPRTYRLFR
# UniProt O75688: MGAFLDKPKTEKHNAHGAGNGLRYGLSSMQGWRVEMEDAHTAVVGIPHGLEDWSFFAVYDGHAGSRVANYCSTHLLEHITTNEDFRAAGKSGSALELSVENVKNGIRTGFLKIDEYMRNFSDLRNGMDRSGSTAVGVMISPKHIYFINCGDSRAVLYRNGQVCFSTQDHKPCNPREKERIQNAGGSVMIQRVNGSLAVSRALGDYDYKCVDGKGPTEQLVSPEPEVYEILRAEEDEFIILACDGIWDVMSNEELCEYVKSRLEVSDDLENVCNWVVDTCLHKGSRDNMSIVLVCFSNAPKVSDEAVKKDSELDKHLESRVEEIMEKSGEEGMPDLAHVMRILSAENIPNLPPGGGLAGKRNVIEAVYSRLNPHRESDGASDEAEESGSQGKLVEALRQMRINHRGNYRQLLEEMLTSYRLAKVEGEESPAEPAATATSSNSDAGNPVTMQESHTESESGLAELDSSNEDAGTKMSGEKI
# UniProt Q92733: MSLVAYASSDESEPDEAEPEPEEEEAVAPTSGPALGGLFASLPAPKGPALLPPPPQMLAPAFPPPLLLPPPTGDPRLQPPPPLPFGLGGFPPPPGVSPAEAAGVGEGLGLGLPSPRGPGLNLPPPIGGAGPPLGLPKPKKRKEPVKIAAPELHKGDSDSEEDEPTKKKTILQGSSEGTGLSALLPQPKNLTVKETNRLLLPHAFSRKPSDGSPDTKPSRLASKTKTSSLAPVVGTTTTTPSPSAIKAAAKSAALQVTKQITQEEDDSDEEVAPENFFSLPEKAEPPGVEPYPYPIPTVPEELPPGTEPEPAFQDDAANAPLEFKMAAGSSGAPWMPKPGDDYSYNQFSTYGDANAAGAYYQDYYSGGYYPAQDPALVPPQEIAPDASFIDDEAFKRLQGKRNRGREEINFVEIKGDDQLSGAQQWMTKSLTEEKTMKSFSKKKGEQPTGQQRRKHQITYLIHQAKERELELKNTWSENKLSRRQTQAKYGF
# UniProt P05165: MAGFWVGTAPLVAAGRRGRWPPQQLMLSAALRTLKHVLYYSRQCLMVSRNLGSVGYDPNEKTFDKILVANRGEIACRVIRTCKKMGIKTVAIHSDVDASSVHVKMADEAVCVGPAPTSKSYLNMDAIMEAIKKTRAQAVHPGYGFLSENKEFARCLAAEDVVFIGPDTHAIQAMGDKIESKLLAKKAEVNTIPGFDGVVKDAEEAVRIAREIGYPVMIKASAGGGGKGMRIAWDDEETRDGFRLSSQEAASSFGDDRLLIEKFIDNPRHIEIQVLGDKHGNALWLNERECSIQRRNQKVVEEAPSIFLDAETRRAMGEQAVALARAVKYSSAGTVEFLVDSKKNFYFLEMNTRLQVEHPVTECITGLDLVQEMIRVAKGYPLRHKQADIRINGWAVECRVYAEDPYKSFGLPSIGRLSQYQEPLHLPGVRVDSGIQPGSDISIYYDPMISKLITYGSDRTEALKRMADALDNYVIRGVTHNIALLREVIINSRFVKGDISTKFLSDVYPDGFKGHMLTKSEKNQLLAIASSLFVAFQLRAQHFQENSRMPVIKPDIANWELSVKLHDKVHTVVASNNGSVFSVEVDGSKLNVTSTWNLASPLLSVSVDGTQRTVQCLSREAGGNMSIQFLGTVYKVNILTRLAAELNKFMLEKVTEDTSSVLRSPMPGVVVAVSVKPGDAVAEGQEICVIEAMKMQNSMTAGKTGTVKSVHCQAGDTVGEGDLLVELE
# UniProt Q8NA72: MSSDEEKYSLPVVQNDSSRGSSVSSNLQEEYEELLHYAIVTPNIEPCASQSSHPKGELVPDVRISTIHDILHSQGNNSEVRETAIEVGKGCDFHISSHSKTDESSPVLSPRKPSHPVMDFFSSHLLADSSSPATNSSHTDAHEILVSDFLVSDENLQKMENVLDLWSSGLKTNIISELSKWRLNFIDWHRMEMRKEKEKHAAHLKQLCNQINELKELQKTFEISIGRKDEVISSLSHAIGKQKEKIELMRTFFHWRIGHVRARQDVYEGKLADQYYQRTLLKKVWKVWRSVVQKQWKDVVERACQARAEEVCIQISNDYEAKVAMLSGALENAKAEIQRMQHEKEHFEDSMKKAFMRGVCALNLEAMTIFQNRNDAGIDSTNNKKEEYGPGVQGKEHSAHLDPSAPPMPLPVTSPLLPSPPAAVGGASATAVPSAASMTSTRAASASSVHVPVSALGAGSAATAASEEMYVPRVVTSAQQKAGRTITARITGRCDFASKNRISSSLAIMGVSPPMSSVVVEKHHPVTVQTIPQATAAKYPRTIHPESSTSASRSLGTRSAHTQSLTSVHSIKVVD
# UniProt P05166: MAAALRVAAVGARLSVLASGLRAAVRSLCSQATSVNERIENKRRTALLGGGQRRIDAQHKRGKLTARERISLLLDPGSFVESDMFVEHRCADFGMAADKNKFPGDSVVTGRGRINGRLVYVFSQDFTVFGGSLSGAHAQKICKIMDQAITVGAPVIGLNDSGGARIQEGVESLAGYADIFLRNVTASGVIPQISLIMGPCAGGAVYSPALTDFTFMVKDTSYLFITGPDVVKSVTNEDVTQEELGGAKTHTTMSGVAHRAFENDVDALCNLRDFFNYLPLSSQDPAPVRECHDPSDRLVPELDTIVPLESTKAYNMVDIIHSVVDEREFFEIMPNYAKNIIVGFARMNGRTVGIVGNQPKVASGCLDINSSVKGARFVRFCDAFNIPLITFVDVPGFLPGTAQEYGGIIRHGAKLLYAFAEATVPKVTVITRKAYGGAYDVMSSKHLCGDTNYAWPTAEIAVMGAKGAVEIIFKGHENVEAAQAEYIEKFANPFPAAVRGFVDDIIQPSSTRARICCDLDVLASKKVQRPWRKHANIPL
# UniProt Q9ULR3: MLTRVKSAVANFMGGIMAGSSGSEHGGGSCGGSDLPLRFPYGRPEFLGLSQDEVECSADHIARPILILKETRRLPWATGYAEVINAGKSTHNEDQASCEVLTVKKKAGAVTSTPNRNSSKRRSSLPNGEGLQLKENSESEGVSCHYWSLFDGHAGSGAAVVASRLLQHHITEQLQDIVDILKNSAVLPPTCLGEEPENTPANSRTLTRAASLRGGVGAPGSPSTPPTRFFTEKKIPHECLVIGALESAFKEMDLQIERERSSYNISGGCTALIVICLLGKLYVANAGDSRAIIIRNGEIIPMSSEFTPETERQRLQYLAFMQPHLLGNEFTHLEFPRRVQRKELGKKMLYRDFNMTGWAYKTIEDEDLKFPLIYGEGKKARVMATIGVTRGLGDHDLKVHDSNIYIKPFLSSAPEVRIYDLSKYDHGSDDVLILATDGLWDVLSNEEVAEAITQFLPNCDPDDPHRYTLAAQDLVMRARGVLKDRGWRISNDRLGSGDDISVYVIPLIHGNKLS
# UniProt P27986, whole entry: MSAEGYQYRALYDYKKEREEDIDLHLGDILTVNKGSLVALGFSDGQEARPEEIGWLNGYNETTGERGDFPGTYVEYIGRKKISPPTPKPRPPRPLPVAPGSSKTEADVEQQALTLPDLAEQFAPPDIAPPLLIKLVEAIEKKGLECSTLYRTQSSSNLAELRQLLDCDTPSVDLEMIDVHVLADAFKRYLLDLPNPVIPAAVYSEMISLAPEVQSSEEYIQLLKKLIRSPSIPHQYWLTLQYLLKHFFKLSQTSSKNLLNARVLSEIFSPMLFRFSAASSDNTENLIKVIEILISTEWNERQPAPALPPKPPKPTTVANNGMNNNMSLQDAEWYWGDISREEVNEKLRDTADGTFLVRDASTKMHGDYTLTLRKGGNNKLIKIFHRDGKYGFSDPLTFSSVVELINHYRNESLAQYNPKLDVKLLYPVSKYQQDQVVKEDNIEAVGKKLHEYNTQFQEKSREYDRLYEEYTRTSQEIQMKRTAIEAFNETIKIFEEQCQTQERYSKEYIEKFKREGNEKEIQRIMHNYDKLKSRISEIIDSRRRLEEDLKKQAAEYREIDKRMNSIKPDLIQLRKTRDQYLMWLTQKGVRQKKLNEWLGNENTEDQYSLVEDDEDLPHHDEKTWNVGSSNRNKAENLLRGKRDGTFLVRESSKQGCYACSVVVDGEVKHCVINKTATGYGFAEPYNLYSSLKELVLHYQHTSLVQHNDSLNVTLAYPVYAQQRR
# UniProt O15212, whole entry: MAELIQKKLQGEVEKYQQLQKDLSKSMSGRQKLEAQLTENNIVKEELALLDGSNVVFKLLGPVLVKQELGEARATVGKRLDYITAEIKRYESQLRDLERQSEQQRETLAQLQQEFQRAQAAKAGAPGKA
# Some of the results follow.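 Rule for the calls: active = dose-dependent thermal stabilisation significant by F-test of dose-response against flat model at 10% FDR; inactive = not significant.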
# Compound: Nc1nc2c(ncn2[C@@H]2O[C@H](COP(=O)(O)OP(=O)(O)OP(=O)(O)O)[C@@H](O)[C@H]2O)c(=O)[nH]1
# Assay: dose-dependent thermal stabilisation call (2D-TPP, DLPTP, 10% FDR) (binary (1 = stabilised)); higher = stabilised by the compound
# Settings: system: Jurkat gel-filtered lysate; concentration range 1-500 µM
row,Target,dose-dependent thermal stabilisation call
1,POLDIP2 (UniProt Q9Y2S7),inactive: 0
2,PEBP1 (UniProt P30086),inactive: 0
3,PGAM1 (UniProt P18669),active: 1
4,PLBD2 (UniProt Q8NHP8),inactive: 0
5,PDCD6IP (UniProt Q8WUM4),inactive: 0
6,PPIA (UniProt P62937),inactive: 0
7,PGGT1B (UniProt P53609),inactive: 0
8,PKN1 (UniProt Q16512),active: 1
9,PHF10 (UniProt Q8WUB8),inactive: 0
10,PIK3CD (UniProt O00329),active: 1
11,PFKFB2 (UniProt O60825),inactive: 0
12,PCNP (UniProt Q8WW12),inactive: 0
13,PRDX1 (UniProt Q06830),inactive: 0
14,PPP1R10 (UniProt Q96QC0),inactive: 0
15,PPIH (UniProt O43447),inactive: 0
16,POU2F1 (UniProt P14859),inactive: 0
17,PLXNA1 (UniProt Q9UIW2),inactive: 0
18,PMPCA (UniProt Q10713),active: 1

row,Target,dose-dependent thermal stabilisation call
1,PCNA (UniProt P12004),active: 1
2,PPM1B (UniProt O75688),inactive: 0
3,PRCC (UniProt Q92733),inactive: 0
4,PELI2 (UniProt Q9HAT8),inactive: 0
5,POLR2C (UniProt P19387),inactive: 0
6,PCCA (UniProt P05165),inactive: 0
7,PIK3R4 (UniProt Q99570),inactive: 0
8,POC5 (UniProt Q8NA72),inactive: 0
9,POLA2 (UniProt Q14181),inactive: 0
10,PMS2 (UniProt P54278),active: 1
11,PCCB (UniProt P05166),inactive: 0
12,PCBP1 (UniProt Q15365),inactive: 0
13,PPP1R13L (UniProt Q8WUF5),inactive: 0
14,PITHD1 (UniProt Q9GZP4),inactive: 0
15,PPP4R3A (UniProt Q6IN85),inactive: 0
16,PPM1H (UniProt Q9ULR3),inactive: 0
17,PIK3R1 (UniProt P27986),inactive: 0
18,PFDN6 (UniProt O15212),inactive: 0

# A few values from the results shown:
# Entry of POC5 (UniProt Q8NA72) under dose-dependent thermal stabilisation call: inactive: 0
# Entry of PRCC (UniProt Q92733) under dose-dependent thermal stabilisation call: inactive: 0
# Entry of PPP1R13L (UniProt Q8WUF5) under dose-dependent thermal stabilisation call: inactive: 0
